Values from PubChem BioAssay AID1259254 (NCATS, 2017).
Purpose: 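Genome-wide screen for genes that prevent DNA re-replication in cancer cells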 (primary screen). Cell system: human HCT116 colorectal cancer cells. Reagent: single siRNA against human genes. Duration: 3 days. Measured: 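Imaged Hoechst DNA stain sorts each cell into a cycle phase by DNA amount; per plate, G2 fraction set to 0% for non-targeting and 100% for GMNN siRNA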. Scale: G2 robust z-score: higher = more G2 cells, more excess DNA replication. Hit rule: 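An siRNA counts as active if its G2 robust z-score lies at least 5 MADs above the screen median; here such calls match roughly 38% of GMNN control or more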.
The whole screen tested about 59,000 reagents; shown is an unselected part. About 1,550 of all reagents (2.6%) were called active. 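G2 share is only a proxy for re-replication; each gene was hit by three separate siRNAs, and active genes were retested.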 Reagents against one gene are numbered here. Not all columns of the deposit are shown. Reagent sequences are not shown. Not given: the amount of reagent.

target | reagent no. | G2 robust z-score | call
RPL7L1P5 (RPL7L1 pseudogene 5) | 1 | 0.589 | inactive
RPL7L1P5 (RPL7L1 pseudogene 5) | 2 | -0.83 | inactive
RPL7L1P5 (RPL7L1 pseudogene 5) | 3 | 2.87 | inactive
AGBL4 (AGBL carboxypeptidase 4) | 1 | 2.36 | inactive
AGBL4 (AGBL carboxypeptidase 4) | 2 | -0.572 | inactive
AGBL4 (AGBL carboxypeptidase 4) | 3 | 0.654 | inactive
DNAJC19P9 | 1 | 0.782 | inactive
DNAJC19P9 | 2 | -0.595 | inactive
DNAJC19P9 | 3 | 0.531 | inactive
SEC22A (SEC22 homolog A, vesicle trafficking protein) | 1 | -0.441 | inactive
SEC22A (SEC22 homolog A, vesicle trafficking protein) | 2 | 0.622 | inactive
SEC22A (SEC22 homolog A, vesicle trafficking protein) | 3 | -0.3 | inactive
FIRRM (FIGNL1 interacting regulator of recombination and mitosis) | 1 | 0.207 | inactive
FIRRM (FIGNL1 interacting regulator of recombination and mitosis) | 2 | 2.94 | inactive
FIRRM (FIGNL1 interacting regulator of recombination and mitosis) | 3 | 0.478 | inactive
SLC11A1 | 1 | -1.11 | inactive
SLC11A1 | 2 | -0.66 | inactive
SLC11A1 | 3 | 1.8 | inactive
IRF2BPL (interferon regulatory factor 2 binding protein like) | 1 | -0.509 | inactive
IRF2BPL (interferon regulatory factor 2 binding protein like) | 2 | -1.01 | inactive
IRF2BPL (interferon regulatory factor 2 binding protein like) | 3 | 1.52 | inactive
KLF5 (KLF transcription factor 5) | 1 | -0.471 | inactive
KLF5 (KLF transcription factor 5) | 2 | -0.646 | inactive
KLF5 (KLF transcription factor 5) | 3 | -0.481 | inactive
ZNF383 (zinc finger protein 383) | 1 | -0.0368 | inactive
ZNF383 (zinc finger protein 383) | 2 | 0.512 | inactive
ZNF383 (zinc finger protein 383) | 3 | 0.162 | inactive
PLCXD2 | 1 | -1.13 | inactive
PLCXD2 | 2 | -0.0543 | inactive
PLCXD2 | 3 | -1.34 | inactive

Looked up above.
Entry of AGBL4 (AGBL carboxypeptidase 4) #3 under “call”: inactive
Value of PLCXD2 #3 in “G2 robust z-score”: -1.34
